Measurements: PubChem BioAssay AID504444 (National Center for Advancing Translational Sciences (NCATS), 2011)
In all, about 360,000 compounds went through this assay and about 7,500 (2.1%) were called active. The inconclusive results got no clear call from the source; some entries with a clear call stand among them for comparison. Calls follow the shape of the dose curve; as a rule, active = well fitted inhibition curve with a large enough effect; inconclusive = small, poorly fitted or top-dose-only effect, or effect the other way; inactive = flat fitted curve, though single readings scatter. Potencies beside an inconclusive call are fits to weak or partial responses and may not hold up.

Experiment: Nrf2 qHTS screen for inhibitors; also: nearly all actives have a fitted effect of over 60% in size
Conditions: A549 ARE-Fluc reporter, luciferase luminescence, 18-24 h; series mostly up to 46 µM
Summary of the method: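 A549 ARE_Fluc cells (5000/well, 5% FBS OPTI-MEM) pre-incubated 2 h, then treated with compounds 18-24 h at 37C/5% CO2 in concentration-response. CellTiter-Fluor viability read first; BugLite luciferase luminescence after 15 min at room temperature gives Nrf2 activity.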
Potency is read from the fitted curve at half-maximal effect.

SMILES	Potency
CC(C)OCCCn1c(-c2ccc(Br)cc2)c[nH]c1=S	inconclusive: 20.6 µM [falling, single point]
CCCCn1ccnc1C(=O)c1cccc(S(=O)(=O)N2c3ccccc3CC2C)c1 (stereo not drawn)	inconclusive: 29.1 µM [falling, single point]
CCCCC(=O)NC(c1ccco1)c1cc(Cl)c2cccnc2c1O (stereo not drawn)	inconclusive: 29.1 µM [falling, single point]
CCN(CC)S(=O)(=O)c1cc([N+](=O)[O-])ccc1NNC(=O)Nc1ccc(Cl)c(Cl)c1	inconclusive: 23.1 µM [falling, single point]
CC1=C(C(N)=O)C(c2ccc(Cl)c(Cl)c2)n2ncnc2N1 (stereo not drawn)	inconclusive: 1.64 µM [falling, full curve]
CCOC(=O)c1c(-c2ccccc2)csc1NC(=O)c1cccc(N2C(=O)CCC2=O)c1	inconclusive: 23.1 µM [falling, single point]
COc1ccc(NC(=O)Nc2ccc3c(c2)C(=O)N([C@H](C)CO)C[C@H](C)[C@@H](CN(C)C(=O)Nc2ccc(OC)cc2)O3)cc1	inactive
O=[N+]([O-])c1cc(S(=O)(=O)NCCN2CCOCC2)ccc1Sc1nnnn1-c1ccccc1	inconclusive: 20.6 µM [falling, partial curve, poor fit]
O=C(c1ccc(CNS(=O)(=O)c2ccccc2)cc1)N1CCN(Cc2ccccc2)CC1	active: 13 µM
Cc1ccc(Sc2ncccc2[N+](=O)[O-])cc1	inactive
COc1ccc(C(=O)C2CCCN(C(=O)Cn3cncn3)C2)cc1OC (stereo not drawn)	inconclusive: 0.103 µM [falling, full curve, poor fit]
CCCCOc1ccc(C(=O)NNC(=O)c2cnccn2)cc1OC	active: 10.3 µM
O=[N+]([O-])c1ncccc1OCc1ccc(Cl)c(Cl)c1	inconclusive: 16.4 µM [activator, partial curve]
COc1ccc(/C=N/Nc2cc(C)nc3ccc(OC)cc23)c(OC)c1	inconclusive: 29.1 µM [falling, single point]
COc1ccc(C)cc1NC(=O)c1cc2c(=O)n3ccccc3nc2n1C	inconclusive: 13 µM [falling, partial curve, poor fit]
CC(C)C(=O)Nc1cccc(NC(=O)c2cccc([N+](=O)[O-])c2)c1	inactive
Cc1ccc(C(=O)Nc2cccc(-c3cn4ccccc4n3)c2)cc1	inconclusive: 4.11 µM [activator, partial curve, poor fit]
O=C(COc1ccc(Br)cc1Br)NN1C(=O)c2ccccc2C1=O	inconclusive: 29.1 µM [activator, single point]

Already shown: two of the compounds above.
SMILES	Potency
COc1ccc(NC(=O)Nc2ccc3c(c2)C(=O)N([C@H](C)CO)C[C@H](C)[C@@H](CN(C)C(=O)Nc2ccc(OC)cc2)O3)cc1	inactive
O=[N+]([O-])c1cc(S(=O)(=O)NCCN2CCOCC2)ccc1Sc1nnnn1-c1ccccc1	inconclusive: 20.6 µM [falling, partial curve, poor fit]
